# Source: US20040001801A1 (priority 2002, published 2004)
# What was measured:
# [1] = general procedure: Fmoc solid-phase peptide synthesis; preloaded Wang resin; HOBT, HBTU, DIEA; conditions: for final HPLC purity: analytical HPLC
# [2] = general procedure: Fmoc solid-phase peptide synthesis; Fmoc-nL-Wang resin; HOBT, HBTU, DIEA; conditions: whole synthesis, analytical HPLC, scale 3 mmol
# [3] = general procedure: Fmoc solid-phase peptide synthesis; Fmoc-Ala-Wang resin; HOBT, HBTU, DIEA; conditions: whole synthesis, analytical HPLC, scale of the general procedure 0.25 mmol
substance,measurement,setting,value
Ac-Gly-Ser-Gly-Arg-Ser-nLeu-OH,final HPLC purity,"[1]; whole synthesis, scale of the general procedure 0.25 mmol",97% purity
same,isolated mass,"[1]; whole synthesis, scale 3 mmol",1.04 g
same,isolated yield,"[1]; whole synthesis, scale 3 mmol",56%
same,crude HPLC purity,[2],purity=90%
Ac-RQSRAA-OH,crude HPLC purity,[3],approximately 95% purity
PEPTIDE1{[ac].G.S.G.R.S.[nLeu].[Dox]}$$$$V2.0,conjugation yield,[1]; conjugation step,45%
same,final HPLC purity,[1]; conjugation step,95% purity

# For some of these results: Some peptides are written in HELM: one residue between dots, names in brackets for other building blocks, links after the first $.
